In patent publication US6300470A, “Antibiotic cryptdin peptides and methods of their use” (priority 1999, dated 2001):
At least one peptide structure holds a part that was inferred or is arguable (an end, a ring closure or a residue). Bridge positions count the residues as written; N and C are the ends. Peptide text beside a SMILES is read from it.

Key:
[1] = system: wild type S. typhimurium (ATCC 10428); assay: agar radial diffusion assay, wild type S. typhimurium; type: cell-based; conditions: phosphate buffer; at concentrations effective against the attenuated phoP mutant
Experimental: (§1) FIGS. 7.A. and 7.B. depict the antimicrobial activity of mouse cryptain 1 (SEQ ID NO: 6). Samples of purified natural mouse cryptdin 1 (FIG. 7.A.) or rabbit NP-1 (FIG. 7.B.) were dissolved in 0.01% acetic acid and pipetted into wells produced in a 0.6, agarose/0.3% tryptone plate containing 1×10^6 log phase bacterial cells. After incubation at 37° C. for 18 hr, antimicrobial activity was evaluated by measuring the diameters of the clear zones. Closed circles denote wild type S. typhimurium; open circles denote the phoP^- mutant. […]
(§2) Antibacterial activity was measured in an agar radial diffusion assay (Lehrer et al., supra, 1991b) using wild type S. typhimurium (ATCC 10428) or an isogenic phoP mutant of S. typhimurium (strain CS015 phoP102::Tn10d-Cam, Miller et al., supra, 1989). […]
(§3) Purified cryptdin peptides were dissolved at 3 to 300 μg/ml in 0.010% acetic acid and activity was examined against E. coli ML35 (ATCC). […] Antibacterial activity was determined by measuring the diameter of learing around each well and plotted as a function of peptide concentration.

[2] = system: isogenic phoP mutant of S. typhimurium (strain CS015 phoP102::Tn10d-Cam); assay: agar radial diffusion assay, phoP mutant S. typhimurium; type: cell-based; conditions: phosphate buffer
Experimental: as §1, §2, §3

Compound: CSCC[C@@H]1NC(=O)[C@H](CCCNC(=N)N)NC(=O)[C@H](CCC(=O)O)NC(=O)[C@H](CCCNC(=N)N)NC(=O)CNC(=O)[C@H](CCCCN)NC(=O)[C@@H]2CSSC[C@@H]3NC(=O)[C@H](CC(C)C)NC(=O)[C@H]([C@@H](C)O)NC(=O)[C@H](Cc4ccc(O)cc4)NC(=O)[C@H](CC(C)C)NC(=O)[C@H](CC(C)C)NC(=O)[C@H](Cc4c[nH]cn4)NC(=O)CNC(=O)[C@H](CCCCN)NC(=O)[C@H](CCCNC(=N)N)NC(=O)[C@H](CSSC[C@H](NC(=O)[C@H](Cc4ccc(O)cc4)NC(=O)[C@@H](NC(=O)[C@@H](NC(=O)[C@H](CC(C)C)NC(=O)[C@H](CC(=O)O)NC(=O)[C@H](CCCNC(=N)N)NC(=O)[C@@H](N)CC(C)C)C(C)C)CSSC[C@@H](C(=O)N[C@@H](CCCNC(=N)N)C(=O)O)NC3=O)C(=O)N[C@@H](CCCNC(=N)N)C(=O)N[C@@H](CO)C(=O)N[C@@H](CCCNC(=N)N)C(=O)NCC(=O)N2)NC(=O)[C@H]([C@@H](C)O)NC(=O)CNC(=O)[C@H](CC(N)=O)NC1=O [cryptdin 1] (H-LRDLVCYCRSRGCKGRERMNGTCRKGHLLYTLCCR-OH; disulfide 6-34, 8-23, 13-33)
- antimicrobial activity against wild type S. typhimurium (clear zones) [1]: completely resistant
- antimicrobial activity against phoP mutant S. typhimurium (clear zones) [2]: effective
